The text below walks through data of US20060073133A1 (published 2006).

No constants are given. Whether binding was seen depends on the method and setting.

Assay [1] concerns the target SAF-1. In words: BIAcore. In general terms: In SPR one partner is held on a chip, and binding of the other changes the refractive index at the surface.
For assay [2], the target named is SAF-1. In words: displacement immunoassay.

B1: monoclonal antibody 12B1 (antibody, IgG2a, V domains shown)
VH: QIQLQQSGPELVKPGASVKVSCKASGYSFTDYNIYWVKQSHGKSLEWIGYIDPYNDDTGYNQKFKGKATLTVDKSSSTAFMHLNSLTSEDSAVYYCASEGIHWGQGTLVTVS
VL: DIVMTQSQKFMSTSVGDRVSVTCKASQNVGTNVAWFQQKPGQSPKALIYSASYRYNGVPDRFTGSGSGTDFTLTISNVQSEDLADYFCQQYNIYPYTFGGGTKLEIK
notes: also called mAb 12B1; SAF-3 mAb (clone 12B1)
With B1, the binding entry is “no binding” in the assay with SAF-1 [1] and “no binding (tested: max. displacement 5%)” with SAF-1 [2].
